For the assay, the system named is Sprague Dawley strain (SD strain) male rats. The assay is described as follows: Conditioned place preference (CPP) method, psychic dependence induced by morphine.

As for `CN1CC[C@]23c4c5ccc(O)c4O[C@H]2[C@@H](O)C=C[C@H]3[C@H]1C5` [morphine, reference compound], the “Period rats remained in the box conditioned by the drug” value (morphine alone 3 mg/kg s.c. vs solvent control) is “significantly prolonged” and the “Period rats remained in the box conditioned by the drug” value (morphine alone 5 mg/kg s.c.) is “significantly prolonged”.

(Values after patent US20010044449A1, “REMEDIES FOR DRUG ADDICTION” (priority 1997, published 2001).)
